# PubChem BioAssay AID2685 (National Center for Advancing Translational Sciences (NCATS), 2010)
# In all, about 320,000 compounds went through this assay and about 2,100 (0.66%) were called active. The shares of active, inactive and inconclusive entries below differ from those in the screen. Calls follow the shape of the dose curve; as a rule, active = well fitted inhibition curve with a large enough effect in the signal ratio, with a control signal flat (not every such curve was filed as active); inconclusive = small, poorly fitted or top-dose-only effect, or effect the other way, or a change in a side signal; inactive = flat fitted curve, though single readings scatter; the % refers to the signal ratio. Potencies beside an inconclusive call are fits to weak or partial responses and may not hold up.
# Assay: qHTS Assay for Lipid Storage Modulators in Drosophila S3 Cells
# Conditions: BODIPY lipid droplet fluorescence, 18-24 h, cells fed with added oleic acid; lipid storage change, negative = inhibition: at 46.1 µM (top of the series) unless noted
# Procedure, shortened: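 Drosophila S3 cells loaded with oleic acid (400 uM, as added) and compounds at several concentrations; lipid droplets imaged by 488-nm laser-scanning cytometry, 500–530 nm intensity and object ratio to cell channel. Percent activity normalized to 20 uM Triacsin C.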
# % is scaled to controls: 0 for no effect and ±100 for the full control effect; potency is read from the fitted curve at half-maximal effect.
SMILES,Potency,"lipid storage change, negative = inhibition"
COC(=O)[C@H](CC(C)C)NC(=O)NC1CCCCC1C (some centres undefined),active: 25.9 µM,
CC(=O)Nc1ccc(C(=O)Nc2ccc(S(=O)(=O)NCC3CCCO3)cc2)cc1 (centres undefined),,inconclusive: -35.4%
COC(=O)c1cc(Cl)cc2c(C)c(C3(O)CCCCC3)[nH]c12,,inconclusive: 17.7%
O=[N+]([O-])c1cc(-c2nnc(N3CCOCC3)c3ccccc23)ccc1N1CCOCC1,,inconclusive: 23.3%
Cc1ccc(-n2c(N)c(C(=O)NCc3ccco3)sc2=S)cc1,,inconclusive: -38.1%
Cc1cc(C)c2c(CN3CCC(C)CC3)cc(=O)oc2c1,,inconclusive: 42.8%
COc1ccc(OC)c(CNc2nc3ccccc3n2CCN2CCCCC2)c1,,inconclusive: 50%
Cc1cccc(NC(=O)COc2ccc(/C=N\n3cnnc3)cc2)c1,,inconclusive: 10.7%
CCN(c1ccccc1)S(=O)(=O)c1cc(C(=O)NCc2ccco2)ccc1C,"inconclusive: 14.6 µM [falling, partial curve, poor fit]",
COc1ccc(CCN(C(=O)C(F)(F)F)C(C(=O)NC2CCCC2)c2cccs2)cc1 (centres undefined),,inconclusive: -68.1%
Cn1c(=O)n(C)c2cc(NC(=O)COc3ccc(F)cc3)ccc21,,inconclusive: -14.9%
O=C1CCC(C(=O)OCc2cc(Cl)ccc2OC(F)F)N1 (centres undefined),,inconclusive: -0.744%
CC1CCCCC1NC(=O)COC(=O)c1c2c(nc3ccccc13)/C(=C/c1ccco1)CC2 (centres undefined),"inconclusive: 4.11 µM [falling, partial curve, poor fit]",
CCOc1ccc(C2NC(=O)NC(C)=C2C(=O)OCc2ccccc2)cc1 (centres undefined),,inconclusive: 24.6%
CNC(=O)c1csc(-c2cccs2)n1,,inconclusive: -23.9%
CCN(CC)CCCN(Cc1cc2cc(OC)ccc2[nH]c1=O)C(=O)Nc1ccc(F)cc1,,inconclusive: 7.85%
COc1ccc(C(=O)c2c[nH]c(C(=O)N=CN(C)C)c2)cc1,,inconclusive: 32%
CCOC(=O)c1cc(NC(=O)Nc2ccccn2)c(C)nc1C,,inconclusive: -4.77%
CCc1ccc(NC(=O)CNC(=O)c2nn(-c3ccc(OC)cc3)c(=O)c3ccccc23)cc1,"inconclusive: 4.11 µM [activator, partial curve, poor fit]",
Cn1c(/C=C/c2ccc(Br)cc2)c([N+](=O)[O-])c(=O)n(C)c1=O,active: 2.91 µM,
Cc1ccc(C)n1-c1nn(S(=O)(=O)c2ccccc2)c2cccc(F)c12,"inconclusive: 8.2 µM [rising, partial curve, poor fit]",
CCN(C(=O)CSc1nc(C)nc2sc(C)c(C)c12)c1ccc(F)cc1,,inconclusive: 21.7%
Cc1c(S(=O)(=O)N2CCCCC2)c(=O)n(C)c(=O)n1C,,inconclusive: 8.39%
O=C(COn1nnc2ccc(S(=O)(=O)N3CCOCC3)cc21)NCCc1ccccc1,,inconclusive
COc1cc(C(=O)NNC(=O)NC2CCCCC2)cc(OC)c1OC,,inconclusive: -1.07%

# Copied from the list:
# For lipid storage change, negative = inhibition, Cc1cccc(NC(=O)COc2ccc(/C=N\n3cnnc3)cc2)c1 has inconclusive: 10.7%
# For Potency, COC(=O)[C@H](CC(C)C)NC(=O)NC1CCCCC1C (some centres undefined) has active: 25.9 µM
# For lipid storage change, negative = inhibition, Cc1c(S(=O)(=O)N2CCCCC2)c(=O)n(C)c(=O)n1C has inconclusive: 8.39%

# (continued)

SMILES,Potency,"lipid storage change, negative = inhibition"
CCOc1cc(S(=O)(=O)NC2CCCCC2)ccc1F,,inconclusive: 219%
FC(F)(F)c1nnc2ccc(NCc3cccnc3)nn12,,inconclusive: -5.62%
COC(=O)c1sc(N2C(=O)C(O)=C(C(=O)c3ccc(C)o3)C2c2ccco2)nc1C (centres undefined),,inconclusive: 164%
CCSc1nnc(NC(=O)[C@H](C)NC(=O)c2ccccc2Cl)s1,,inconclusive: 13.9%
CCCCn1c(N)c(N(CC(C)C)C(=O)c2ccc(OCC3CCCO3)cc2)c(=O)[nH]c1=O (centres undefined),"inconclusive: 0.731 µM [falling, full curve]",
COCCN1CCN(C(=O)C2CCC(=O)N(CCc3cccc(F)c3)C2)CC1 (centres undefined),,inconclusive: 17.2%
CCN(CC(=O)Nc1ccccc1OC)C(=O)c1cccc(-n2cccc2)c1,"inconclusive: 6.51 µM [activator, single point]",
COc1cc(/C=C/C(=O)c2ccc3c(c2)OCCO3)cc(OC)c1OC,"inconclusive: 29.1 µM [falling, single point]",
COCc1cc(C)nc2sc(C(=O)N3CCCC3)c(N)c12,"inconclusive: 1.64 µM [activator, partial curve]",
O=c1[nH]c(=S)[nH]c(O)c1N=Nc1ccc(-c2ccccc2)cc1[N+](=O)[O-],,inconclusive: -49.2%
O=C(O)c1ccc(Cn2cnc3cccnc32)cc1,,inconclusive: -23.8%
CSc1ncccc1C(=O)NCCc1ccccc1F,,inconclusive: -79.7%
CCOC(=O)c1ccc(NC(=O)c2ccc(NC(=O)c3ccccc3)cc2)cc1,"inconclusive: 10.3 µM [falling, partial curve]",
Cc1cccc(-n2c(CCc3ccccc3)nnc2SCC(=O)c2ccccc2)c1,"inconclusive: 2.31 µM [activator, full curve]",
CCc1ccc(CNC(=O)C2CCCN(c3nn4c(=O)cc(C)nc4s3)C2)cc1 (centres undefined),"inconclusive: 0.92 µM [falling, partial curve]",
CCOc1ccccc1NC(=S)NCCc1ccc(F)cc1,,inconclusive: 24.1%
COc1ccc(-n2c(SCC(=O)Nc3ccccc3OC)nc(O)cc2=O)cc1,,inconclusive: -12.2%
CC1CCc2c(sc3ncnc(SCC(=O)N4CCN(C(=O)c5ccco5)CC4)c23)C1 (centres undefined),"inconclusive: 32.6 µM [falling, single point]",
CCCc1nn(-c2cc(Cl)ccc2OC)c2c1C(=O)CCC2,"inconclusive: 1.84 µM [rising, partial curve]",
O=C(Nc1nnc(C2=COCCO2)o1)c1ccc(Br)cc1,,inconclusive: -26.1%
CCCn1c(N2CCN(C(=O)NCc3ccccc3)CC2)nc2ccccc21,,inconclusive: -3.47%
CCn1nc(C)cc1-c1nnc(SCC(=O)Nc2ccccc2)n1CCCOC,,inconclusive: 12.9%
CC(=O)Nc1sc2c(c1C(c1ccccc1Cl)N1CCN(CCO)CC1)CCCC2 (centres undefined),"inconclusive: 7.31 µM [falling, partial curve, poor fit]",
COc1cc(C(=O)Nc2ccc3c(c2)CCCN3C(=O)c2ccco2)c([N+](=O)[O-])cc1OC,,inconclusive: 32.9%
